Measured data: PubChem BioAssay AID1259254 (NCATS, 2017)
Purpose: 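Genome-wide screen for genes that prevent DNA re-replication in cancer cells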 (primary screen). System: human HCT116 colorectal cancer cells. Reagent: single siRNA against human genes. Timing: 3 days. Detection: 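Imaged Hoechst DNA stain sorts each cell into a cycle phase by DNA amount; per plate, G2 fraction set to 0% for non-targeting and 100% for GMNN siRNA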. Reading the numbers: G2 robust z-score and G2 cells, % of GMNN control: higher = more G2 cells, more excess DNA replication; raw share of cells in G2: higher = larger share of cells with G2 DNA content. Rule for the call: 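An siRNA counts as active if its G2 robust z-score lies at least 5 MADs above the screen median; here such calls match roughly 38% of GMNN control or more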.
In all, the deposit lists about 59,000 reagents; shown is a random part of them. About 1,550 of all reagents (2.6%) were called active. 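G2 share is only a proxy for re-replication; each gene was hit by three separate siRNAs, and active genes were retested.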 Raw values vary from plate to plate and are shown uncorrected. Reagent sequences are not shown. Not stated in the record: the amount of reagent.

The opening 8 entries as a preview:
no.	target	PubChem SID	G2 robust z-score	G2 cells, % of GMNN control	raw share of cells in G2 (%)	activity call
1	TRIM15	SID160724673	-1.22	-5.63	2.55	inactive
2	TRIM15	SID160724674	-0.342	0.564	5.93	inactive
3	TRIM15	SID160732117	1.13	10.9	8.6	inactive
4	CALCOCO1	SID160746512	0.0384	3.24	5.62	inactive
5	CALCOCO1	SID160746513	2.33	19.4	13.7	inactive
6	CALCOCO1	SID160746514	0.483	6.36	5.04	inactive
7	USF1	SID160718672	-0.758	-2.37	2.52	inactive
8	USF1	SID160718673	-0.885	-3.26	3.32	inactive

The list itself, from the first entry:
no.	target	PubChem SID	G2 robust z-score	G2 cells, % of GMNN control	raw share of cells in G2 (%)	activity call
1	TRIM15	SID160724673	-1.22	-5.63	2.55	inactive
2	TRIM15	SID160724674	-0.342	0.564	5.93	inactive
3	TRIM15	SID160732117	1.13	10.9	8.6	inactive
4	CALCOCO1	SID160746512	0.0384	3.24	5.62	inactive
5	CALCOCO1	SID160746513	2.33	19.4	13.7	inactive
6	CALCOCO1	SID160746514	0.483	6.36	5.04	inactive
7	USF1	SID160718672	-0.758	-2.37	2.52	inactive
8	USF1	SID160718673	-0.885	-3.26	3.32	inactive
9	USF1	SID160718674	-0.889	-3.29	1.91	inactive
10	SLC8A3	SID160716905	0.761	8.32	7.4	inactive
11	SLC8A3	SID160716906	1.42	12.9	8.24	inactive
12	SLC8A3	SID160716908	-0.507	-0.6	5.48	inactive
13	PDZK1	SID160714085	1.18	11.3	9.77	inactive
14	PDZK1	SID160714086	0.602	7.2	7.07	inactive
15	PDZK1	SID160714087	-0.723	-2.12	2.59	inactive
16	FPR1	SID160767192	0.318	5.2	7.7	inactive
17	FPR1	SID160767203	-0.207	1.51	5.04	inactive
18	FPR1	SID160767212	0.289	5	4.8	inactive
19	PSMA4	SID160715176	3.45	27.2	15.1	inactive
20	PSMA4	SID160715177	0.586	7.09	7.42	inactive
21	PSMA4	SID160715178	5.07	38.6	18.3	active
22	ALKBH4	SID160742156	-0.161	1.83	4.26	inactive
23	ALKBH4	SID160742157	0.845	8.91	8.03	inactive
24	ALKBH4	SID160742158	-0.943	-3.67	1.98	inactive
25	TM6SF2	SID160741398	0.206	4.42	5.18	inactive
26	TM6SF2	SID160741399	0.0989	3.66	5.81	inactive
27	TM6SF2	SID160741400	-0.936	-3.62	2	inactive
28	SAXO6	SID160745216	0.842	8.89	7.85	inactive
29	SAXO6	SID160745217	-0.763	-2.4	3.31	inactive
30	SAXO6	SID160745218	-0.525	-0.727	2.8	inactive
31	ACSL3	SID160763653	2	17.1	11.4	inactive
32	ACSL3	SID160763663	1.97	16.8	11.7	inactive
33	ACSL3	SID160763674	-0.62	-1.39	3.16	inactive
34	CEP85	SID160747999	-0.523	-0.713	4.27	inactive
35	CEP85	SID160748001	-0.0303	2.75	5.84	inactive
36	CEP85	SID160748002	2.33	19.4	7.81	inactive
37	NCKAP1	SID160729222	4.59	35.2	18.8	inactive
38	NCKAP1	SID160729223	1.2	11.4	8.85	inactive
39	NCKAP1	SID160729224	0.631	7.41	5.95	inactive
40	PERP	SID160747387	-0.00487	2.93	5.86	inactive
41	PERP	SID160747388	0.758	8.3	8.33	inactive
42	PERP	SID160747389	-0.289	0.932	2.94	inactive
43	RTBDN	SID160724597	-0.1	2.26	3.09	inactive
44	RTBDN	SID160751190	-1.09	-4.71	2.54	inactive
45	RTBDN	SID160751191	1.08	10.6	6.59	inactive
46	FBXL14	SID160732525	0.0778	3.51	4.29	inactive
47	FBXL14	SID160758181	-0.731	-2.18	3.1	inactive
48	FBXL14	SID160758182	-0.475	-0.376	2.8	inactive
49	AQP4	SID160719232	-0.636	-1.51	4.21	inactive
50	AQP4	SID160719243	4.87	37.2	18.3	inactive
51	AQP4	SID160719254	3.92	30.5	15.4	inactive
52	PANX3	SID160732354	0.969	9.79	4.68	inactive
53	PANX3	SID160755397	0.717	8.01	7.3	inactive
54	PANX3	SID160755398	-0.235	1.32	3.72	inactive
55	MPDZ	SID160720780	-0.629	-1.46	4.18	inactive
56	MPDZ	SID160720781	-0.451	-0.208	5.19	inactive
57	MPDZ	SID160720782	0.619	7.32	7.86	inactive
58	NADK	SID160731753	-0.849	-3.01	4.1	inactive
59	NADK	SID160748290	0.123	3.83	6.78	inactive
60	NADK	SID160748292	-0.753	-2.33	2.94	inactive
61	SLC16A3	SID160721522	2.83	22.9	14.9	inactive
62	SLC16A3	SID160721523	-0.295	0.891	5.58	inactive
63	SLC16A3	SID160721524	0.149	4.02	6.15	inactive
64	PIBF1	SID160728487	-1.16	-5.21	2.97	inactive
65	PIBF1	SID160728488	-0.7	-1.96	3.13	inactive
66	PIBF1	SID160728489	0.79	8.52	6.51	inactive
67	CA9	SID160731889	3.19	25.4	14.1	inactive
68	CA9	SID160733564	-0.681	-1.82	4.1	inactive
69	CA9	SID160733750	8.77	64.7	28.1	active
70	TSPEAR	SID160741555	1.85	16	9.32	inactive
71	TSPEAR	SID160741556	1.55	13.9	10.1	inactive
72	TSPEAR	SID160741557	-0.479	-0.403	3.06	inactive
73	PIGK	SID160724195	0.105	3.71	6.6	inactive
74	PIGK	SID160724202	-0.869	-3.15	3.47	inactive
75	PIGK	SID160724209	-0.516	-0.662	2.97	inactive
76	LELP1	SID160724869	-0.67	-1.75	2.46	inactive
77	LELP1	SID160758766	1.34	12.4	7.97	inactive
78	LELP1	SID160758767	-0.924	-3.54	1.82	inactive
79	SOST	SID160739812	-0.279	1.01	4.24	inactive
80	SOST	SID160739815	1.56	14	9.82	inactive
81	SOST	SID160739816	0.701	7.9	5.74	inactive
82	TRRAP	SID160719813	-0.27	1.07	5.92	inactive
83	TRRAP	SID160719814	1.53	13.7	10.2	inactive
84	TRRAP	SID160731982	0.0871	3.58	4.83	inactive
85	SLC25A44	SID160722772	0.35	5.43	5.05	inactive
86	SLC25A44	SID160722773	-0.954	-3.75	3.23	inactive
87	SLC25A44	SID160722774	-1.06	-4.52	3.49	inactive
